Reference: patent US20140242609A1, “Diagnosis and treatment of kidney stones, methods and compositions therefor” (Washington University, priority 2013, published 2014)

What was measured:
[1] = 1 hr renal clearance measurements (FITC-inulin), plasma and urine electrolytes; type: in vivo, mouse
Procedure: (§1) The method for performing renal clearance measurements in the mouse has been described by Hou et al., (2007; 2009). Mice were anesthetized by i.p. injection of Inactin (Sigma; 100 mg/kg). The jugular vein was catheterized for i.v. infusion of 0.9% saline at 2 μL/min, with 1% FITC-inulin included in the infusate. After an equilibration period of 60 min, renal clearance measurements were carried out for a 60 min period. Urine was collected under mineral oil, and 30 μL blood sample was taken at hourly intervals. Urine and plasma Ca^2+ and Mg^2+ concentrations were measured by atomic flame absorption spectrophotometer (PerkinElmer). Urine and plasma FITC-inulin levels were measured in 100 mM HEPES buffer (pH7.0) with fluorescence spectrophotometer (BioTek). The fractional excretion of electrolytes was calculated using the following equation FEion=V×Uion/(GFR×Pion), where GFR was calculated according to the clearance rate of FITC-inulin (GFR=V×Uinulin/Pinulin).
as §1, with “Hou, J.,” for “Hou”, “2007 and Hou, J., et al., 2009.” for “(2007; 2009).”, “(Sigma:” for “(Sigma;”, “Ca^++” for “Ca^2+”, “Mg^++” for “Mg^2+”, “(PerkinEhner).” for “(PerkinElmer).”

[2] = 24 hr urinalysis in metabolic cages, plasma and urine electrolytes; type: in vivo, mouse
Procedure: Age (9-10 weeks old) and sex (male) matched wild-type and CLDN14 KO mice were housed individually in metabolic cages (Harvard Apparatus) with free access to water and food for 24 hr. Urine was collected under mineral oil. The plasma and urine Ca^++ and Mg^2+ levels were determined with atomic flame absorption spectrophotometer (PerkinElmer). The plasma (P) and urine (U) electrolyte levels were determined with the Roche Cobas clinical analyzer (Roche Diagnostics). […] The fractional excretion of electrolytes was calculated using the following equation: FEion=V×Uion/(GFR×Pion), where GFR was calculated according to the clearance rate of creatinine (GFR=V×Ucreatinine/Pcreatinine).
Mice were housed individually in metabolic cages (Harvard Apparatus) with free access to water and food for 24 hr. Urine was collected under mineral oil. The plasma and urine Ca^++ and Mg^++ levels were determined with atomic flame absorption spectrophotometer (PerkinElmer). The creatinine levels were measured with an enzymatic method that was independent of plasma chromogens.

[3] = WT + CsA (25 mg/kg BW−1 per day, 6 days), 2 hr, Veh = CsA alone
[4] = WT, 2 hr, single dose 30 mg/kg BW−1
[5] = WT, 8 hr, single dose 30 mg/kg BW−1
[6] = claudin-14 KO, 2 hr, single dose 30 mg/kg BW−1
[7] = WT pre-treated with furosemide 40 mg/kg BW−1 per day, Veh + Furo = furosemide alone

For `C[C@@H](NCCCc1cccc(C(F)(F)F)c1)c1cccc2ccccc12` [cinacalcet], the “GFR (glomerular filtration rate)” value [1, 3] was 0.52 ± 0.08 mL/h/g, the “UV (urine volume)” value [1, 3] was 14.98 ± 3.97 µL/h/g and the Weight [1, 3] was 20.56 ± 0.18 g. The “GFR (glomerular filtration rate)” value [1, 4] was 0.44 ± 0.06 mL/h/g, the “UV (urine volume)” value [1, 4] was 6.65 ± 1.14 µL/h/g and the Weight [1, 4] was 22.88 ± 1.39 g. For the same molecule, the “GFR (glomerular filtration rate)” value [1, 5] was 0.28 ± 0.03 mL/h/g, the “UV (urine volume)” value [1, 5] was 7.74 ± 2.13 µL/h/g and the Weight [1, 5] was 22.72 ± 0.20 g. For the same molecule, the “GFR (glomerular filtration rate)” value [1, 6] was 0.36 ± 0.06 mL/h/g, the “UV (urine volume)” value [1, 6] was 4.38 ± 0.68 µL/h/g and the Weight [1, 6] was 21.80 ± 0.97 g.

With `NS(=O)(=O)c1cc(C(=O)O)c(NCc2ccco2)cc1Cl` [Furo, Furosemide] the GFR [2, 7] was 1.77 ± 0.44 ml/24 h · g and the UV [2, 7] was 137.11 ± 15.95 ul/24 h · g.

`O=C(CCCCCCC(=O)Nc1ccccc1)NO` [SAHA, Suberanilohydroxamic acid] gave a GFR ([2]; CLDN14 KO, same SAHA regimen) of 2.42 ± 0.29 ml/24 h · g, a UV ([2]; CLDN14 KO, same SAHA regimen) of 44.03 ± 2.07 ul/24 h · g and a GFR [2, 7] of 1.69 ± 0.13 ml/24 h · g. The UV [2, 7] was 110.59 ± 9.03 ul/24 h · g, the GFR ([2]; WT, SAHA 10 mg/kg BW−1 per day) was 2.09 ± 0.51 ^ ml/24 h · g and the UV ([2]; WT, SAHA 10 mg/kg BW−1 per day) was 37.11 ± 4.54 ^ ul/24 h · g.

For `CC(C)(Cc1ccc2ccccc2c1)NC[C@@H](O)COc1cccc(Cl)c1C#N` [NPS2143], the “GFR (glomerular filtration rate)” value [1, 3] was 0.41 ± 0.06 mL/h/g, the “UV (urine volume)” value [1, 3] was 9.03 ± 3.47 µL/h/g and the Weight [1, 3] was 20.77 ± 0.58 g. The “GFR (glomerular filtration rate)” value [1, 4] was 0.51 ± 0.06 mL/h/g, the “UV (urine volume)” value [1, 4] was 7.91 ± 1.34 µL/h/g and the Weight [1, 4] was 22.10 ± 0.38 g. For the same molecule, the “GFR (glomerular filtration rate)” value [1, 5] was 0.44 ± 0.08 mL/h/g, the “UV (urine volume)” value [1, 5] was 7.14 ± 1.25 µL/h/g and the Weight [1, 5] was 21.73 ± 0.27 g. For the same molecule, the “GFR (glomerular filtration rate)” value [1, 6] was 0.34 ± 0.02 mL/h/g, the “UV (urine volume)” value [1, 6] was 3.63 ± 0.06 µL/h/g and the Weight [1, 6] was 23.86 ± 0.86 g.
